Reference: patent US20230241155A1, “METHODS AND MEANS FOR MODIFYING HEMODYNAMICS IN INFECTIONS” (Biotempt B.V., priority 2020, published 2023)
“Also recorded” adds a separate entry of the source. Not every detail of the peptide structures is certain; ends, links or a residue may be inferred. Peptide text beside a SMILES is read from it.

Legend:
JNK = experiment: fMLP-induced kinase phosphorylation in FPR-expressing cells; format: cell-based; details: 30 to 600 seconds after fMLP
[1] = tested on: IL-6, IL-8, IL-10, IL-1RA, IL-17, MCP-1 and ICAM; experiment: Plasma cytokine levels (immunomodulatory effects) in the EASI-study; format: in vivo, human; details: CABG patients
[2] = Length of stay in ICU, hospital and readmissions (EASI-study); format: in vivo, human
STAT3 = experiment: fMLP-induced kinase phosphorylation in FPR-expressing cells; format: cell-based; details: 30 to 600 seconds after fMLP
[3] = Pharmacokinetics in the LPS-study; format: in vivo; details: geometric mean and 95% confidence interval
[4] = Kidney function in the EASI-study (GFR, creatinine, RIFLE AKI stages); format: in vivo, human
P42/p44MAPK/ERK1,2 = experiment: fMLP-induced kinase phosphorylation in FPR-expressing cells; format: cell-based; details: 30 to 600 seconds after fMLP
[5] = Hemodynamic stability in the EASI-study (vasopressor use, fluid balance); format: in vivo, human; details: for Netto fluid balance day 0-2, Mean / Netto fluid balance day 0-2, Median: first 72 hours
PKB (AKT) = experiment: fMLP-induced kinase phosphorylation in FPR-expressing cells; format: cell-based
p38 MAPK = experiment: as above; format: cell-based
[6] = patients with no AKI, N valid 51

SMILES: CC(C)[C@H](NC(=O)CNC(=O)[C@H](CCC(N)=O)NC(=O)[C@H](C)N)C(=O)O [EA-230, AQGV] (H-AQGV-OH)
- peptide effect on JNK phosphorylation (JNK): not affected throughout; also recorded: not detected
- IL-6 plasma levels (primary endpoint), EA-230 vs placebo group [1]: no significant difference; also recorded: missed
- plasma levels of IL-8, IL-10, IL-1RA, IL-17, MCP-1 and ICAM and other cytokines, EA-230 vs placebo group [1]: no significant difference
- days of hospital care needed, on average ([2]; EA-230-treated patients): about 8 days
- reduction of hospital length of stay ([2]; compared to the placebo group): 20%
- reduction of the number of patients at the ICU at 24 hours ([2]; compared to the placebo group): 48%
- CABG-study Re-admission day 90, number of patients re-admitted to the hospital ([2]; period 29-90 days after operation, 91 patients): 2
- CABG-study Re-admission day 28, number of patients re-admitted to the hospital ([2]; period of 28 days after operation, 91 patients): 2
- Total CABG-study Re-admission, number of patients re-admitted to the hospital ([2]; total period of 90 days after operation, 91 patients): 4
- length of stay (LOS) at the ICU ([2]; vs placebo): significant reduction
- length of stay (LOS) at the hospital ([2]; vs placebo): significant reduction
- peptide effect on STAT3 phosphorylation (STAT3): not affected throughout; also recorded: not detected
- elimination half-life [3]: 0.17 [0.12-0.24] hours
- number of patients in the Injury category of the RIFLE criteria ([4]; EA-230 group vs placebo): decreased
- number of patients with no AKI (RIFLE criteria) ([4]; EA-230 group vs placebo): increased
- number of patients in the Injury category of the RIFLE criteria ([4]; EA-230 group vs placebo, listed as AQGV): reduced
- Creatinine clearance ([4]; all patients treated, vs placebo): significantly improved
- clearance of creatinine ([4]; kidney function above 60 mL/minute): no differences were observed
- clearance of creatinine ([4]; kidney function below 60 mL/minute): significantly improved
- GFR ([4]; vs placebo): significantly improved
- peptide effect on P42/p44MAPK/ERK1,2 phosphorylation (P42/p44MAPK/ERK1,2): not affected throughout; also recorded: not detected
- net (netto) fluid balance ([5]; patients both with and without AKI, vs placebo): decreased
- days on vasopression, Mean ([5]; patients with AKI, N valid 39): 1.97 days
- days on vasopression, Median ([5]; patients with AKI, N valid 39): 2.00 days
- Netto fluid balance day 0-2, Mean ([5]; patients with AKI, N valid 39): 2549.16
- Netto fluid balance day 0-2, Median ([5]; patients with AKI, N valid 39): 2328.80
- need for vasopressors ([5]; patients with AKI, vs placebo): decreased
- days on vasopression, Mean ([5]; patients with no AKI (RIFLE score incl urine output), N valid 51): 1.37 days
- days on vasopression, Median [5, 6]: 1.00 days
- Netto fluid balance day 0-2, Mean [5, 6]: 1348.47
- Netto fluid balance day 0-2, Median [5, 6]: 1213.70
- PI3K/AKT/mTOR activated induced changes in cell cytoskeleton reorganization (PKB (AKT); FPR-expressing cells, fMLP): reduces
- time at which peptide effects on PKB(AKT) phosphorylation follow (PKB (AKT); after FPR-stimulation with fMLP, bi-phasic pattern): 300 s
- duration of peptide effect on PKB-mediated signaling (PKB (AKT); full period tested after fMLP): 600 s
- p38 MAPK kinase activated changes in cell cytoskeleton reorganization (p38 MAPK; FPR-expressing cells, fMLP): reduces
- time at which peptide effects on p38 MAPK phosphorylation are already detected (p38 MAPK; after FPR-stimulation with fMLP): 30 s
- duration of peptide effect on p38 signaling (p38 MAPK; full period tested after fMLP): 600 s
